Data published in publication PMC11601938.
No constants are given. Whether binding was seen depends on the method and setting. Binding seen in cells or lysates may run through a third protein.

Sequences of proteins named here, by UniProt entry; tags and fusion partners are left off. A change or cut given only in a name is not applied to a line headed by its entry.
UniProt Q8N653: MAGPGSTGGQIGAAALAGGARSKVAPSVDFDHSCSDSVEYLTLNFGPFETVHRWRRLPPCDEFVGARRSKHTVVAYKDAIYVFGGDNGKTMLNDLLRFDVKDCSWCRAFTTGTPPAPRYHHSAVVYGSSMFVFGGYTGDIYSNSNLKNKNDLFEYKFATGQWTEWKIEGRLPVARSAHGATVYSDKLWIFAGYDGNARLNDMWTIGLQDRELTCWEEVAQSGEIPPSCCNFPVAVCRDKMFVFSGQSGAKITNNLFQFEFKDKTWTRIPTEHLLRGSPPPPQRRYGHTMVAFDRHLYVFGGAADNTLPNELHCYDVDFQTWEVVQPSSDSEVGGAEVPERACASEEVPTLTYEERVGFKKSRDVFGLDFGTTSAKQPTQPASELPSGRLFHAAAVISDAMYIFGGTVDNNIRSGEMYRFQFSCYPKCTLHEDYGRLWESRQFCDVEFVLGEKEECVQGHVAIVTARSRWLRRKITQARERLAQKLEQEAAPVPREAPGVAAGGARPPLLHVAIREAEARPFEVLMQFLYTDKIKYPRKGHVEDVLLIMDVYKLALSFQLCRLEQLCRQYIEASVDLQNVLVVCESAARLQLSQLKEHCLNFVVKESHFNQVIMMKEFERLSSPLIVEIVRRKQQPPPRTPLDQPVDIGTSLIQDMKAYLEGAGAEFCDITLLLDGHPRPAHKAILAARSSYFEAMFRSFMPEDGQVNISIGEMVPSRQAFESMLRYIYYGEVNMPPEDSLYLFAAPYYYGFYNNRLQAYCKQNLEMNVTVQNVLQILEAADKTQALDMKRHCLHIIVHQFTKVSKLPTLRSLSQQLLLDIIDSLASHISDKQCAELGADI
UniProt Q92963: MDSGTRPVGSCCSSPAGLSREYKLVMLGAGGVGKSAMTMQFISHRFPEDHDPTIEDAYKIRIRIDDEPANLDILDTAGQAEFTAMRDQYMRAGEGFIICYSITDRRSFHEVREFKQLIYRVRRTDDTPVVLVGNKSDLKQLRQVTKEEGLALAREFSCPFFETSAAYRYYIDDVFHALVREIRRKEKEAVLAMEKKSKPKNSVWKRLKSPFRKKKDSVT

Biological target: FLAG-LZTR1 AD mutant at R283, in vitro translated (human) (UniProt Q8N653)
Assay: co-IP; in vitro translated FLAG-LZTR1 WT or mutants incubated with HEK293-KO (LZTR1-KO) whole-cell lysate and FLAG-M2 magnetic beads for 12 hours; immunoblot for endogenous RAS subfamily proteins

binding: no binding
Substance: RIT1 (Ras-like without CAAX 1), endogenous (from UniProt Q92963 1-219)
